Measurements published in PMC12615670.
Results are given in words; binding and its absence hold for the method and conditions named. Binding seen in cells or lysates may run through a third protein. Some binding calls cover weakened binding; strength is not graded here.

Amino acid sequences for entries named in this document (tags omitted). A change or cut given only in a name is not applied to a line headed by its entry. Residues count along the entry.
UniProt P06213: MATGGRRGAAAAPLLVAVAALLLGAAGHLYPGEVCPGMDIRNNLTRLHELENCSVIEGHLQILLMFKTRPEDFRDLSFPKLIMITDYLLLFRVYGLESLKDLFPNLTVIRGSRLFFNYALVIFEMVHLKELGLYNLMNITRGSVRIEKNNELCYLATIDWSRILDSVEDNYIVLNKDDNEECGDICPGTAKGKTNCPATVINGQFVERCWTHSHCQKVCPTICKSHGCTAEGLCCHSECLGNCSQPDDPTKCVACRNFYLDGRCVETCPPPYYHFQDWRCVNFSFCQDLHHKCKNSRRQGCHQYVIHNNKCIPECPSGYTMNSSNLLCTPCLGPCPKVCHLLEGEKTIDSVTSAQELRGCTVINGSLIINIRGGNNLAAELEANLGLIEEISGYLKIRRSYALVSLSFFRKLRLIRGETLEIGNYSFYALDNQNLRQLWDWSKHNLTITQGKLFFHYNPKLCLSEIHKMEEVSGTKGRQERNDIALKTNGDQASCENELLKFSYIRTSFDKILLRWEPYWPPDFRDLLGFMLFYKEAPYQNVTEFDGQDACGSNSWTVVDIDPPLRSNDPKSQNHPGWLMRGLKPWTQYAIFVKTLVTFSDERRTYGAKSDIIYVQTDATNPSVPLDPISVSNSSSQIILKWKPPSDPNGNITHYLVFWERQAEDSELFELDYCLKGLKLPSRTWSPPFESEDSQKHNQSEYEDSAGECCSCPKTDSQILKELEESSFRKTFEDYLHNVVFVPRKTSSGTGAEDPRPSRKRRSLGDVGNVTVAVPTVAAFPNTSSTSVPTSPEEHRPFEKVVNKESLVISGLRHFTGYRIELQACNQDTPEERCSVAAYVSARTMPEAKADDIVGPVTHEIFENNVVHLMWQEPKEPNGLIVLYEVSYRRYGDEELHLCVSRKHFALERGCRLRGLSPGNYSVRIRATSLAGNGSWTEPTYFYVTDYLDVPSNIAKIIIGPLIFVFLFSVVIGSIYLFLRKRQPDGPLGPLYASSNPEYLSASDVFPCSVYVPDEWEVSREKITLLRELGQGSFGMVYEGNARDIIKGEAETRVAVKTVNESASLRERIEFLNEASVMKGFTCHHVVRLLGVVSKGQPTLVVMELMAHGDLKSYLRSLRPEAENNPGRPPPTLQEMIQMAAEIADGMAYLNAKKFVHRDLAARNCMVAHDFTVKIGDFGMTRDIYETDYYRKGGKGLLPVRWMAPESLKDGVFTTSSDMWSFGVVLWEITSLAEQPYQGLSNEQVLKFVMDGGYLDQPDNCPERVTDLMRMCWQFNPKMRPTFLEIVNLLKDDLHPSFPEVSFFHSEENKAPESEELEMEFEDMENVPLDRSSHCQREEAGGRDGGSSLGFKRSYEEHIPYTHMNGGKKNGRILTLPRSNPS
UniProt P63010: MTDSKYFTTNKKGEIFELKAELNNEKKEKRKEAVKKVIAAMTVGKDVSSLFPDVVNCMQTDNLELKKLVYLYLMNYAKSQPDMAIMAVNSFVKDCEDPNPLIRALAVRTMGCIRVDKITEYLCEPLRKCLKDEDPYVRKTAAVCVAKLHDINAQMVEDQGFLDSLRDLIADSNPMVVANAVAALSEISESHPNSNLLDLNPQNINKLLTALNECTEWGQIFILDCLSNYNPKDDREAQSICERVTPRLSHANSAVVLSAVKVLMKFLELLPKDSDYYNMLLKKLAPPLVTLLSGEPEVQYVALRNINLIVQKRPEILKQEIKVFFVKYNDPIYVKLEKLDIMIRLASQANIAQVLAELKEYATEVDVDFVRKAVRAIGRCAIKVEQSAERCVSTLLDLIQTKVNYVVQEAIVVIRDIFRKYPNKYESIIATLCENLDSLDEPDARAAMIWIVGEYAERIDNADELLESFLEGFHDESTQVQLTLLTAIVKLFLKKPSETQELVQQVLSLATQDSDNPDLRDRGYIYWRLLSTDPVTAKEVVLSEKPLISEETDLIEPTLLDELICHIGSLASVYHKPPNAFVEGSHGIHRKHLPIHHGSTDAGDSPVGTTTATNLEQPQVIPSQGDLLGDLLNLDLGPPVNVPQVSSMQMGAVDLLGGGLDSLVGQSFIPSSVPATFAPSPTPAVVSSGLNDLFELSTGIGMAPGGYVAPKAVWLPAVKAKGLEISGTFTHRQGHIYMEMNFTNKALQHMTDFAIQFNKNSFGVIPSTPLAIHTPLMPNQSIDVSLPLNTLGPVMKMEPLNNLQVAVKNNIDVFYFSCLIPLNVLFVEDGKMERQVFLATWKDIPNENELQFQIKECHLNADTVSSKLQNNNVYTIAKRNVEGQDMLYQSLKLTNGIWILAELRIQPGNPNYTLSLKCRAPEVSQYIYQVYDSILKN
UniProt Q9DBG3: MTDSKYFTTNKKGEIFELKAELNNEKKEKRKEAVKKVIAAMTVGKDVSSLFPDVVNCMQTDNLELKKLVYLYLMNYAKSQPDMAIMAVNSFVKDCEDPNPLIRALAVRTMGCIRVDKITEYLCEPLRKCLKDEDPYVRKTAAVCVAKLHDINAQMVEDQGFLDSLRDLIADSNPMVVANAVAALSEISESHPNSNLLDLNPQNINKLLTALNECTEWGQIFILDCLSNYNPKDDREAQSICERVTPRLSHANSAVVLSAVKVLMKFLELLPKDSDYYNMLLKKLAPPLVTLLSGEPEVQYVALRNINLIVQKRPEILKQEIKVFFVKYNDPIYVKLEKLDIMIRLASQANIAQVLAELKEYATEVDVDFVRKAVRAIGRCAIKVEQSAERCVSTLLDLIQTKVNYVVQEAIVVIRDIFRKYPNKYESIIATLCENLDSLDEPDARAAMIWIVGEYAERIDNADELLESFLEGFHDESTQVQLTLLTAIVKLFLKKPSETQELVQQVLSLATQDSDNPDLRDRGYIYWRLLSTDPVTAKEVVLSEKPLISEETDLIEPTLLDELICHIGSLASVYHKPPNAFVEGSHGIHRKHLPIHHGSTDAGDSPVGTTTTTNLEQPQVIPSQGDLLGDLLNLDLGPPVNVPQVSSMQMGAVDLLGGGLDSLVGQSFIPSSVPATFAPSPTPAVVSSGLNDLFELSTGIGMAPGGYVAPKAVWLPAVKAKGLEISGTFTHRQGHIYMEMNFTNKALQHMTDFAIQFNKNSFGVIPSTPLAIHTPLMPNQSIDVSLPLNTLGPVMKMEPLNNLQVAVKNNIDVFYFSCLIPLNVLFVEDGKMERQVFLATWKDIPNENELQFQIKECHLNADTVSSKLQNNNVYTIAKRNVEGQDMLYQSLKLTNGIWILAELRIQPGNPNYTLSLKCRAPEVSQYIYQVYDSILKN
UniProt O60884: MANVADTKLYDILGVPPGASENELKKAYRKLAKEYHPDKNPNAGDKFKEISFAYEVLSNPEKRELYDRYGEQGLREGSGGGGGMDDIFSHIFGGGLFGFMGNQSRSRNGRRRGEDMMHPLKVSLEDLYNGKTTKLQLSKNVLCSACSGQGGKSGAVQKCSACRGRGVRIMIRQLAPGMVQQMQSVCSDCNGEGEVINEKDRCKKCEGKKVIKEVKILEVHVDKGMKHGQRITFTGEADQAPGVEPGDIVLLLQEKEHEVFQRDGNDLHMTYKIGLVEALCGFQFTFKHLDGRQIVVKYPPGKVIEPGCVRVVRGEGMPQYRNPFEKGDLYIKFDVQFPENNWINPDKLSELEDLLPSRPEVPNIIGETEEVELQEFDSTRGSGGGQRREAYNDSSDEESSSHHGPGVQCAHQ
UniProt P15208, residues 753-1372: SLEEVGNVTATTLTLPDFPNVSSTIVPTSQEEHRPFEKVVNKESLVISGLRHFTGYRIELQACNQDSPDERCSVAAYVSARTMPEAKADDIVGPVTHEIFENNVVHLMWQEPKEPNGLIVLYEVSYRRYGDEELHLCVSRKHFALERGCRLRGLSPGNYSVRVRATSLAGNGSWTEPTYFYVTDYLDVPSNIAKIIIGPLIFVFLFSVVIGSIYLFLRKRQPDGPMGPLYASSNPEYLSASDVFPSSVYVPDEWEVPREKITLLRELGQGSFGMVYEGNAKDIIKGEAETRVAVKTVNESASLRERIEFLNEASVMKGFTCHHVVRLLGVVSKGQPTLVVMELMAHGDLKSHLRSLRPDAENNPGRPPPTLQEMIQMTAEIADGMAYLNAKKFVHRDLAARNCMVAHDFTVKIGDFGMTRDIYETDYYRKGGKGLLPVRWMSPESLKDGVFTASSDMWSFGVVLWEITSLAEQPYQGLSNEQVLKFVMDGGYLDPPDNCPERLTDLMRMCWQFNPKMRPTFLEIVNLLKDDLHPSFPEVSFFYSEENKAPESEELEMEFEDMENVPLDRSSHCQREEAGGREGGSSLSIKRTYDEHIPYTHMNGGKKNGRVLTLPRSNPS

What was measured:
[1] = biological target: HA-tagged IRβ, full-length (FL) (UniProt P06213); assay: co-IP; HA antibody, lysates of HeLa cells expressing HA-tagged IRβ FL, ΔCD or ΔTCD; DNAJA2 blotted
[2] = biological target: insulin receptor β subunit (IRβ) in HepG2 cells (human (endogenous in HepG2)) (UniProt P06213); assay: proximity ligation; Duolink In Situ Red on fixed, permeabilised HepG2 cells; for IRβ-AP2B1 in SiCtrl and SiDJ2 cells
[3] = biological target: insulin receptor β subunit (IRβ), endogenous in various cell lines (not named) (not stated (endogenous in various cell lines; human and mouse lines were used)) (UniProt P06213); assay: co-IP; IRβ antibody, lysates of various cell lines (not named), in the presence or absence of insulin treatment; Protein G agarose; lysis buffer 50 mM Tris-HCl pH 7.4, 150 mM NaCl, 1% NP-40, 1 mM EDTA, 1% sodium deoxycholate
[4] = biological target: adaptor protein 2 (AP2) subunit beta 1 (AP2B1), endogenous in human cells (human (endogenous in HepG2 and HeLa)) (UniProt P63010); assay: co-IP; AP2B1 antibody, lysates of HeLa cells expressing WT or mutant HA-tagged IR
[5] = biological target: insulin receptor β subunit (IRβ), endogenous in HeLa cells (human (endogenous in HeLa)) (UniProt P06213); assay: co-IP; IRβ antibody, lysates of DJ2−/− HeLa cells expressing FL, ΔJ or ΔC DNAJA2
[6] = biological target: insulin receptor β subunit (IRβ), endogenous in HeLa cells (human (endogenous in HeLa)) (UniProt P06213); assay: proximity ligation; Duolink In Situ Red, IRβ with FL, ΔJ or ΔC DNAJA2 expressed in DJ2−/− HeLa cells
[7] = biological target: adaptor protein 2 (AP2) subunit beta 1 (AP2B1), endogenous in human cells (human (endogenous in HepG2 and HeLa)) (UniProt P63010); assay: co-IP; AP2B1 antibody, lysates of DJ2−/− HeLa cells expressing FL, ΔJ or ΔC DNAJA2
[8] = biological target: adaptor protein 2 (AP2) subunit beta 1 (AP2B1), endogenous in mouse cells and liver (mouse (endogenous in 4T1 and liver)) (UniProt Q9DBG3); assay: co-IP; reverse: AP2B1 antibody, lysates of WT, DJ2−/− and DNAJA2-overexpressing 4T1 cells

Substance: DNAJA2 (heat shock protein DNAJA2), endogenous in human cells (from UniProt O60884 1-412)
- binding [1]: binds
- binding [2]: binds

Substance: DNAJA2, endogenous in various cell lines (not named) (from UniProt O60884 1-412)
- binding [3]: binds

Substance: HA-tagged insulin receptor (IR), wild type (from UniProt P06213 28-1382)
- binding [4]: binds

Substance: adaptor protein 2 (AP2) subunit beta 1 (AP2B1), endogenous in human cells (from UniProt P63010 1-937)
- binding [5]: binds
- binding [2]: binds

Substance: full-length (FL) DNAJA2 expressed in DJ2−/− HeLa cells (from UniProt O60884 1-412)
- binding [6]: binds
- binding [5]: binds

Substance: insulin receptor β subunit (IRβ), endogenous in HeLa cells (from UniProt P06213 763-1382)
- binding [7]: binds

Substance: insulin receptor β subunit (IRβ), endogenous in mouse cells and liver (from UniProt P15208 753-1372)
- binding [8]: binds
